Article PMC5725494, “Cell cycle-dependent phosphorylation regulates RECQL4 pathway choice and ubiquitination in DNA double-strand break repair”
Substitutions are numbered along the chain they refer to. These are yes or no findings as the source states them, for the method shown. Binding seen in cells or lysates may run through a third protein. Some entries that bind do so weakly or less than the wild type. Where a sequence is shown, tags or fusion partners need not be part of it.

By UniProt entry, the sequences of proteins in these tests, tags left out.
UniProt P12956: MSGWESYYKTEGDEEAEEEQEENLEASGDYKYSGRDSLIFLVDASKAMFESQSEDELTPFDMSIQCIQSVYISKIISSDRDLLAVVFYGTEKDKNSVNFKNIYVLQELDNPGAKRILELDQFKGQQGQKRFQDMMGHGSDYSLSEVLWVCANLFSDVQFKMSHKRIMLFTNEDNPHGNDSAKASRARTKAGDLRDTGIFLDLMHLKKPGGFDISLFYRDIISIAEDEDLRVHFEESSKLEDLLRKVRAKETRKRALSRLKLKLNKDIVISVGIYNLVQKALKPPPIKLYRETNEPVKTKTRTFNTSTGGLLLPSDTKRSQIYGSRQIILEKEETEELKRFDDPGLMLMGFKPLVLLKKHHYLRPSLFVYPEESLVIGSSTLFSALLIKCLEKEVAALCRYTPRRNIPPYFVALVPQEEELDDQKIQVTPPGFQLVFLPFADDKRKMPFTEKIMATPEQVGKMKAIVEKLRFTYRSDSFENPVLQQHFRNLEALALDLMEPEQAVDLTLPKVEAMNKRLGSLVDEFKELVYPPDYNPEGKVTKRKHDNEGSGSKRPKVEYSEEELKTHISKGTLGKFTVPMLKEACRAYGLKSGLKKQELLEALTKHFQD

Legend:
[1] = molecular target: T1, GFP-tagged RECQL4 (wild type) (human) (UniProt O94761); assay: co-IP; GFP-TRAP beads on lysate (2 mg protein) of HEK293T cells expressing GFP-tagged RECQL4 or mutants, overnight at 4 °C; lysis buffer 2 (40 mM Tris-HCl pH 7.4, 100 mM NaCl, 2 mM MgCl2, 0.2% NP-40, 0.3% Triton) with Benzonase; cells irradiated with 10 Gy; asynchronous, or synchronised in G1 with aphidicolin and released 10 h for S/G2; Western blotting
T1 sequence: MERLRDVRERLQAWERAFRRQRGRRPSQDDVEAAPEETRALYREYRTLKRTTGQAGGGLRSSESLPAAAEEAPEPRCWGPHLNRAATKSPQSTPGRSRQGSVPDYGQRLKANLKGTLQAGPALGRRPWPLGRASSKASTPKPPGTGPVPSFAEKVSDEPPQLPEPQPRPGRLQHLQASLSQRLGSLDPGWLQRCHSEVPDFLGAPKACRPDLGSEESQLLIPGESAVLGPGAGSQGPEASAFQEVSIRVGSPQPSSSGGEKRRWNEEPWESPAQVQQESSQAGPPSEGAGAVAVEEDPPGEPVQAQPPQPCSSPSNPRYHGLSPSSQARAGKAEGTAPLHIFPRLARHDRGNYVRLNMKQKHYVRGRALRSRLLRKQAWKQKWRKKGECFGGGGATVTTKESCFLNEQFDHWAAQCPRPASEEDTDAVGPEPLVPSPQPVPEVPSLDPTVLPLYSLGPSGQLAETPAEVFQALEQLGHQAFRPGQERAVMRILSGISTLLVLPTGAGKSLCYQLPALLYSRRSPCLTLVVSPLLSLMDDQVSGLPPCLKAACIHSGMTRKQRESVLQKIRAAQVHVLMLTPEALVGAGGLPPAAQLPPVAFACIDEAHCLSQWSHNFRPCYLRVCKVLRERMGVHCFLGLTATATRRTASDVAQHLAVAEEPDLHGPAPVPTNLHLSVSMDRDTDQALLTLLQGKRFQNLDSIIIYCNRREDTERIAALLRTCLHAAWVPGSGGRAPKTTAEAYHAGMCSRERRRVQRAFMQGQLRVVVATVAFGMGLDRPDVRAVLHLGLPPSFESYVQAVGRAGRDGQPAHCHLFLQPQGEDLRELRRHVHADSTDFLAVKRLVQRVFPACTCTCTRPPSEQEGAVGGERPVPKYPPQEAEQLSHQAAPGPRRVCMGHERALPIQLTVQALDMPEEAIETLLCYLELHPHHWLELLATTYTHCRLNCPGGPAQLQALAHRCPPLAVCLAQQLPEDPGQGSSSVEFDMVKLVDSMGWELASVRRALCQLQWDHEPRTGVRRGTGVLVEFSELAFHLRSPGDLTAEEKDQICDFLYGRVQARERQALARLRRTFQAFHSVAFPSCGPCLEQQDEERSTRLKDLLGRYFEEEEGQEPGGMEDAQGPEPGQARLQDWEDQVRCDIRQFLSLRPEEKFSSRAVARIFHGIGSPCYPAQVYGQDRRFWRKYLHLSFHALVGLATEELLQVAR

[2] = molecular target: T2, GFP-tagged RQ4-2D (RECQL4 Ser89Asp/Ser251Asp) (human) (UniProt O94761); assay: as above
T2 sequence: T1 sequence with S89D, S251D

binding [1]: binds | binding [2]: binds
Substance: Ku70 (from UniProt P12956 1-609)
